The target in the experiment is T1, FLAG-tagged PKG-Iβ (pcDNA-f:PKG-Iβ) (UniProt Q13976).
T1 sequence: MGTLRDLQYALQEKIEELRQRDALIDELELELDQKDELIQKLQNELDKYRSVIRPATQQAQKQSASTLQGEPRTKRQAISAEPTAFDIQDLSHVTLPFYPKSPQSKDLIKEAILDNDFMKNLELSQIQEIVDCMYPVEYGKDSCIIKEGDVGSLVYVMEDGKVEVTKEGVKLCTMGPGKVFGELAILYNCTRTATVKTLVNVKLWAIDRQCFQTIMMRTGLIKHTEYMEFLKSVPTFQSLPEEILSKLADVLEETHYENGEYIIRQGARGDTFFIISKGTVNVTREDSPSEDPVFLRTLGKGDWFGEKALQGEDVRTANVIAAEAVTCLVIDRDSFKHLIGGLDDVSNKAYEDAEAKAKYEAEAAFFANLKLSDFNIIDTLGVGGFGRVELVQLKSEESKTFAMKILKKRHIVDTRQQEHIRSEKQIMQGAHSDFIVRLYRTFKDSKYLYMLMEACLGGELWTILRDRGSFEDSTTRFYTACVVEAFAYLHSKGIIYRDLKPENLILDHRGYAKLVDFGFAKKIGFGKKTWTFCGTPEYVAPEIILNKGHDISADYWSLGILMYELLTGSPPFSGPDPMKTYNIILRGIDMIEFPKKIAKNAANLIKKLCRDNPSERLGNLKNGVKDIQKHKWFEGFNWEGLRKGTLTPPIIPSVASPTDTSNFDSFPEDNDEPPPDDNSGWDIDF
Put plainly: co-IP; whole-cell extracts of LNCaP cells transfected with pcDNA-f:PKG-Iβ; anti-p44 antibody on Protein A Sepharose or anti-FLAG M2 agarose; washes with 100 mM KCl, 0.1% NP-40; Western blot with anti-PKG or anti-p44. (In general: Immunoblotting shows a protein as a band on a membrane.)

Sequences of proteins named here, by UniProt entry; tags and fusion partners are left off.
UniProt Q9BQA1: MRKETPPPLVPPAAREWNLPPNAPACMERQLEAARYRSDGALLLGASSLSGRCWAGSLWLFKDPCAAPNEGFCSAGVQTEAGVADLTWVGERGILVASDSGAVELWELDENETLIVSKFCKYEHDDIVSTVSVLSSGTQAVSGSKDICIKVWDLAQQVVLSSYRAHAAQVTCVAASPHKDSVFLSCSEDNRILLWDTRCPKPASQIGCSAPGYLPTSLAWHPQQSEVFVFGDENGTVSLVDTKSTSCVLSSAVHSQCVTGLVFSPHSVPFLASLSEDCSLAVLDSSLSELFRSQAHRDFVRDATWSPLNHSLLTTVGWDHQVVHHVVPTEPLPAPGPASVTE

Results are given in words; binding and its absence hold for the method and conditions named. Binding seen in cells or lysates may run through a third protein. Some entries that bind do so weakly or less than the wild type. Sequences can lack the tags named with a protein.

“p44/WDR77, endogenous in LNCaP cells (from UniProt Q9BQA1 1-342)”: the binding result is reported as “binds”.

For the origin of these results see paper PMC3670919.
